Values of other authors in patent publication US20090247603A1, “Stabilized pharmaceutical compositions comprising an HMG-CoA reductase inhibitor” (Orbus Pharma, Inc., priority 2005, published 2009).

Settings: after oral administration

time of maximum plasma concentrations: 1 to 2 h
SMILES: CC(C)c1c(C(=O)Nc2ccccc2)c(-c2ccccc2)c(-c2ccc(F)cc2)n1CC[C@@H](O)C[C@@H](O)CC(=O)[O-].CC(C)c1c(C(=O)Nc2ccccc2)c(-c2ccccc2)c(-c2ccc(F)cc2)n1CC[C@@H](O)C[C@@H](O)CC(=O)[O-].[Ca+2] (relative stereo) [atorvastatin calcium, (R—(R*,R*))-2-(4-fluorophenyl)-[beta],[delta]-dihydroxy-5-(1-methylethyl)-3-phenyl-4((phenylamino)carbonyl)-1H-pyrole-1-heptanoic acid hemi calcium salt]
